# This is one part of the list. The data scatter; read single values as rough.
# Sequences of proteins named here, by UniProt entry; tags and fusion partners are left off. A change or cut given only in a name is not applied to a line headed by its entry. Residues count along the entry.
# UniProt Q9NX38: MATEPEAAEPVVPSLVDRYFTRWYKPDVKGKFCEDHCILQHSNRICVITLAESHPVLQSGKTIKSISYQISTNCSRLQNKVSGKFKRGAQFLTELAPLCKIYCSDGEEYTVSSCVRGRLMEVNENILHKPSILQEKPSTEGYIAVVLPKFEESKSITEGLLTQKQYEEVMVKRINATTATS
# UniProt Q86V21, 4-24: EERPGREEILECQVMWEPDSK
# UniProt Q9NUQ8: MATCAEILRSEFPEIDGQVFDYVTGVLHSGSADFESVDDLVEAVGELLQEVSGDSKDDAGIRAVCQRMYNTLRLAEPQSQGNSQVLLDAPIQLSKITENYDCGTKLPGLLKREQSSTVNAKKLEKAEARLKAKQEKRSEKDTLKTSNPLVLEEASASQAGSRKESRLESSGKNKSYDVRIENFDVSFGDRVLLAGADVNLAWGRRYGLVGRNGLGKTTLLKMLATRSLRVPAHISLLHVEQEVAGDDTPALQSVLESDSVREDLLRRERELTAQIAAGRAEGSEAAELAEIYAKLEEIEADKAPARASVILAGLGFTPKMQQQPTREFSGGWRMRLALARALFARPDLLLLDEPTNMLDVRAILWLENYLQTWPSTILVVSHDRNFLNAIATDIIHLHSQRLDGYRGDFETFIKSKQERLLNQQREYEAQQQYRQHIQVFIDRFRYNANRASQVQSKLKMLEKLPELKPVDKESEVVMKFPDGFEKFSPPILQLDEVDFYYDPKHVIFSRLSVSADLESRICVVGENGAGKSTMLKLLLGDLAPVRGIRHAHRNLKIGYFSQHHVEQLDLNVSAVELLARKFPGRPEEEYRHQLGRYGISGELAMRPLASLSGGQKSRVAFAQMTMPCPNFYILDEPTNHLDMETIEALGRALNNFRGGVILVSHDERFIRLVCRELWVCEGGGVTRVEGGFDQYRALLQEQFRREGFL
# UniProt Q9UG63: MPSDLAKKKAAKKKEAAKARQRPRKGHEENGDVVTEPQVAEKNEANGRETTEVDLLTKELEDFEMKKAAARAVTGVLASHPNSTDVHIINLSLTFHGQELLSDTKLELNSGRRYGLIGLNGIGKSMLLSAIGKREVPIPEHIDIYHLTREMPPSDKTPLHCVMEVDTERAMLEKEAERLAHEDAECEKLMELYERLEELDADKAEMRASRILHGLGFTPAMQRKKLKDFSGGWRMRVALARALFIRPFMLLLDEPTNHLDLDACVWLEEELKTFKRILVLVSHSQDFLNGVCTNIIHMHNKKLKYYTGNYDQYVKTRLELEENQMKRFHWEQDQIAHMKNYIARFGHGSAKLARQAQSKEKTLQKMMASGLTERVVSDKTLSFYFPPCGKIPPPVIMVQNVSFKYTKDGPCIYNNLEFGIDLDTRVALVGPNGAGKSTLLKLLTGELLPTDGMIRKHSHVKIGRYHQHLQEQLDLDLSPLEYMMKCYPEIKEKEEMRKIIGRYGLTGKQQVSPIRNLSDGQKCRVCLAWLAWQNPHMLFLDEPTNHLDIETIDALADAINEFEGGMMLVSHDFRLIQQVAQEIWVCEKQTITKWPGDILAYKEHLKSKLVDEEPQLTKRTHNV
# UniProt Q6PCB6, 51-94: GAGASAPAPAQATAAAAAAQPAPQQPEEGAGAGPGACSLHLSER
# UniProt Q4L235: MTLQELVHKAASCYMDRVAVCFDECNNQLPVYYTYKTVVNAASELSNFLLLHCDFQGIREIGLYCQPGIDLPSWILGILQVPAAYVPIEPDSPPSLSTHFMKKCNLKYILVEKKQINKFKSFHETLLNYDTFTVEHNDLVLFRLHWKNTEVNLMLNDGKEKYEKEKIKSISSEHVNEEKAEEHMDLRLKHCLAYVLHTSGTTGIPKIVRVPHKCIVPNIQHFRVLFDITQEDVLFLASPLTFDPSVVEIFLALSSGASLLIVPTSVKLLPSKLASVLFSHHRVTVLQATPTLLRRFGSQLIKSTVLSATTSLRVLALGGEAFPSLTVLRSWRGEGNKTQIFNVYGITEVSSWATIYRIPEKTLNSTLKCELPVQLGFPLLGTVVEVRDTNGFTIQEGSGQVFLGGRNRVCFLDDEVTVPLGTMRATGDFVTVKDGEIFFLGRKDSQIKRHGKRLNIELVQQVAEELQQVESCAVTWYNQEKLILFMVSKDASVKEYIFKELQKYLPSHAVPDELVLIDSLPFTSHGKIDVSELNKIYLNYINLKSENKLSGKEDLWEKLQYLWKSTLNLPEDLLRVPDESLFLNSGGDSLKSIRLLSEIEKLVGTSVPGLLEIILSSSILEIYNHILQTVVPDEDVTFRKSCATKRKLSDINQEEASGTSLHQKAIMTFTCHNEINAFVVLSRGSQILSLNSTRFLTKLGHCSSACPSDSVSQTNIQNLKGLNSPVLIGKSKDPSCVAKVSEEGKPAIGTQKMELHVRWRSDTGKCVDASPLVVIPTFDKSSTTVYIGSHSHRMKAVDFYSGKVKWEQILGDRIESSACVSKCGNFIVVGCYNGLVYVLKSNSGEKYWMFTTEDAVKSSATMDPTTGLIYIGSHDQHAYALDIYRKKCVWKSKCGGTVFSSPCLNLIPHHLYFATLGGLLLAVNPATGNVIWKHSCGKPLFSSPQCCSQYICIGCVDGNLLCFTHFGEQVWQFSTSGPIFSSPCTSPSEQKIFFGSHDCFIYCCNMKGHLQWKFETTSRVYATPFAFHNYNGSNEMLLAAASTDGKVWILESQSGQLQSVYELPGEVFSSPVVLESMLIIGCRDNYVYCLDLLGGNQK
# UniProt P00519, whole entry, looked up: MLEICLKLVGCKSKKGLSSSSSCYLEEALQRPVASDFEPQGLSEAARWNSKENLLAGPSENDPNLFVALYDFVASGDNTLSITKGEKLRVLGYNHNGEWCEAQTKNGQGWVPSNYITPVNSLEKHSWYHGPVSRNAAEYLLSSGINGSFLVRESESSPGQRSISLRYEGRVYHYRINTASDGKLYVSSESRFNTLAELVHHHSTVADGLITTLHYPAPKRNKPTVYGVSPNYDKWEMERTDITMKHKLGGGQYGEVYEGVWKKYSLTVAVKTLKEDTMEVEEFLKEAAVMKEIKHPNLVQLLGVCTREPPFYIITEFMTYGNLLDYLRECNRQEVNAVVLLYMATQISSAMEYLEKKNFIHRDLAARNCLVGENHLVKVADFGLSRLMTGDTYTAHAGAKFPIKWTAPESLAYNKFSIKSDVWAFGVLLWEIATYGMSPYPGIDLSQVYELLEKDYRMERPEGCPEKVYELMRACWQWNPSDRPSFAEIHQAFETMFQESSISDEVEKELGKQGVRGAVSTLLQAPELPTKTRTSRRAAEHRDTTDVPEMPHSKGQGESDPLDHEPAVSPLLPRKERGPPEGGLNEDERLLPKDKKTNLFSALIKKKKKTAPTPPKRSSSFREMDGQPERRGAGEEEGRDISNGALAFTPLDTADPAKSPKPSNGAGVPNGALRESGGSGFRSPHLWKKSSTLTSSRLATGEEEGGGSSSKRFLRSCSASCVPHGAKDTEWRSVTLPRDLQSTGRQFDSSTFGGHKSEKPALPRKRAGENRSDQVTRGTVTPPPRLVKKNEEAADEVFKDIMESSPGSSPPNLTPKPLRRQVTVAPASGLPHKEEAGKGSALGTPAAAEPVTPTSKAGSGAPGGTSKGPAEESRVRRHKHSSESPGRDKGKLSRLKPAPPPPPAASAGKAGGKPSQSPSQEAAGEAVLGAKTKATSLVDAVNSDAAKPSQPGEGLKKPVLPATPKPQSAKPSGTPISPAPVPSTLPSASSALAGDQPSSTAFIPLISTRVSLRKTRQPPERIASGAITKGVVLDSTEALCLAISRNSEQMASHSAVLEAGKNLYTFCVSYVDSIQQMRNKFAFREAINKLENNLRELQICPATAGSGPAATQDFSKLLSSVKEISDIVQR
# UniProt O95870: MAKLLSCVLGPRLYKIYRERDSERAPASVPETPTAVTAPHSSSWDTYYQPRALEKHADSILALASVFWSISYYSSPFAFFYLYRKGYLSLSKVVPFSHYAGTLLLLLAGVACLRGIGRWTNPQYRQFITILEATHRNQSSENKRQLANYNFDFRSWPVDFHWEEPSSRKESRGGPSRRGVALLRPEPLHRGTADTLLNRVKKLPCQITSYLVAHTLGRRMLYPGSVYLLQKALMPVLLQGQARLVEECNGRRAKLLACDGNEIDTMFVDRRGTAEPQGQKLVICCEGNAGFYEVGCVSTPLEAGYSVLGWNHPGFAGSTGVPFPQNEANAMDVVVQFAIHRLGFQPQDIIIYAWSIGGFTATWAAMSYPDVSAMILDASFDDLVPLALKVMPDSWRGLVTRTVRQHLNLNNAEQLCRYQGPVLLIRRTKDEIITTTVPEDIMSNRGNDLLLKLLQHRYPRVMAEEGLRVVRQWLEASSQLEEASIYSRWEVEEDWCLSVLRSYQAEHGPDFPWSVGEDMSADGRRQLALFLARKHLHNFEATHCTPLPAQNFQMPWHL
# UniProt O15440: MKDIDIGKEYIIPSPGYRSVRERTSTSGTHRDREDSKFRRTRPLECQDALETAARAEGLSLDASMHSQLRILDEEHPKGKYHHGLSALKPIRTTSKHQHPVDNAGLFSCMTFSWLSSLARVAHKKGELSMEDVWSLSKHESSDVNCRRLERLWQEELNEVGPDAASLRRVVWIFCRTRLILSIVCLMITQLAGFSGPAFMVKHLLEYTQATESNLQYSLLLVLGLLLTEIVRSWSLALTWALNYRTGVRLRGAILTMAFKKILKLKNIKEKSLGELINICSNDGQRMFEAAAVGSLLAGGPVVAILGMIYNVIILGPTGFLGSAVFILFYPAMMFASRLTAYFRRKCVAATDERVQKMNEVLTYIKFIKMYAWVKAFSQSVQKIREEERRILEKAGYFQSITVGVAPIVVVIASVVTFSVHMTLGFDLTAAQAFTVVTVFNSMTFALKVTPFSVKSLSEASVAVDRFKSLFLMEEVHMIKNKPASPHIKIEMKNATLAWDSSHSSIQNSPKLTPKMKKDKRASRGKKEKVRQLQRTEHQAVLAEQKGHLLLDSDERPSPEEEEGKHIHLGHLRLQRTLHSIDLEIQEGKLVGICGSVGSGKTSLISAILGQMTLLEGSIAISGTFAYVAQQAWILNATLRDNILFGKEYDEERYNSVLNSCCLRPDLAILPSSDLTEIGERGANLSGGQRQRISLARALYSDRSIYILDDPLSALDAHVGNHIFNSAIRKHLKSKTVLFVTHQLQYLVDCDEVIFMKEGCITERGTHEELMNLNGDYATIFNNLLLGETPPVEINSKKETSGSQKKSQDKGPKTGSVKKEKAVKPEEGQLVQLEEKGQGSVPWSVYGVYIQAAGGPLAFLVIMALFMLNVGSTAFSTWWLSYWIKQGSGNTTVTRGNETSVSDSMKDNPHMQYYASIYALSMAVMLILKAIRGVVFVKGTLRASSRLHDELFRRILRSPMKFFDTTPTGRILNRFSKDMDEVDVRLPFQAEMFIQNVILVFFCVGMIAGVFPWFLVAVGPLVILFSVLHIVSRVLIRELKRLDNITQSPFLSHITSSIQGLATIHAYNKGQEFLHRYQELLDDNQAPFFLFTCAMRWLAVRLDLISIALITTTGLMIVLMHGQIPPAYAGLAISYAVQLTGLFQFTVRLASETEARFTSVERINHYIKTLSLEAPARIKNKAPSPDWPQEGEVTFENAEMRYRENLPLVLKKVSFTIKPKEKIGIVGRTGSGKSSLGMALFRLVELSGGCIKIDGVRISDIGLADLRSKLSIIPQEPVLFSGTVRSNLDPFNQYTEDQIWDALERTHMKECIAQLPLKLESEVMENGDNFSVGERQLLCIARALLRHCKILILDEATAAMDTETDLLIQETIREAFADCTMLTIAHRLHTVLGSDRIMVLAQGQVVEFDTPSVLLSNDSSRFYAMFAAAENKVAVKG
# UniProt P42684, 992-1024: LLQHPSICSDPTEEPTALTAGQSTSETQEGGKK
# UniProt Q9NUT2: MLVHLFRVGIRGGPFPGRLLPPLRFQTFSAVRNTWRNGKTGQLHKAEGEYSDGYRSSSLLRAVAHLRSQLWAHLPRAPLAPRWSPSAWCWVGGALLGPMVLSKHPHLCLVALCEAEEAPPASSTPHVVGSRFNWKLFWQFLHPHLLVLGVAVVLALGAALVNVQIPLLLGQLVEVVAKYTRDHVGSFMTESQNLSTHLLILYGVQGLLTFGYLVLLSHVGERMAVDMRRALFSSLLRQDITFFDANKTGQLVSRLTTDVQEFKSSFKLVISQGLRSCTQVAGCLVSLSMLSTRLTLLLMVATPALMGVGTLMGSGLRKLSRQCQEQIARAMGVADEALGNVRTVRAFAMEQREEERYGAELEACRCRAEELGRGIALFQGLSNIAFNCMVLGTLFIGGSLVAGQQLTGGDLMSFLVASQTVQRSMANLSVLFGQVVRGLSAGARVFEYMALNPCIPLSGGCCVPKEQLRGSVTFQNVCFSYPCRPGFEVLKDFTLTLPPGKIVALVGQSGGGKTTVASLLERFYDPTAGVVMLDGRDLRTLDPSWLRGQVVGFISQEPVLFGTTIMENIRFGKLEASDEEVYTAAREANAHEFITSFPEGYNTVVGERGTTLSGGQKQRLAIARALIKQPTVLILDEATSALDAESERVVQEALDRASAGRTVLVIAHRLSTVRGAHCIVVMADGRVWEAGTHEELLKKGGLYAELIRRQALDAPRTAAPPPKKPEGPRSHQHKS
# What was measured:
# [1] = compound: ClCC(=O)N[C@@H]1CCCc2ccccc12; test: log2 mean competition ratio of IA-DTB cysteine labelling (DMSO/compound) (log2 ratio); higher = stronger cysteine engagement by compound; details: treatment time: 4 h, cell line lysate: HEK293T
# Protocol: (§1)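 IA-DTB competitive cysteine chemoproteomics in HEK293T RIPA lysate. Lysates were treated with compound 29 or 30 at 50 or 200 µM for 4 h, then IA-DTB (500 µM, 1 h), trypsin-digested, NeutrAvidin-enriched and analysed by diaPASEF. Competition ratio = intensity DMSO / intensity compound (n=4 treated, n=64 DMSO); binding: mean log2 CR ≥ 1 and p ≤ 0.05 plus QC filters. Target is the cysteine site.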
# [2] = compound: ClCC(=O)N[C@H]1CCCc2ccccc12; test: as above; details: treatment time: 4 h, cell line lysate: HEK293T
# Protocol: as §1
target,measurement,setting,value
ABITRAM C74 (UniProt Q9NX38),log2 mean competition ratio,[1]; 50 µM,0.136
same,log2 mean competition ratio,[1]; 200 µM,-0.0962
same,log2 mean competition ratio,[2]; 50 µM,-0.0686
same,log2 mean competition ratio,[2]; 200 µM,-0.126
ABCD1 C599 (UniProt P33897),log2 mean competition ratio,[1]; 50 µM,0.0414
same,log2 mean competition ratio,[1]; 200 µM,-0.107
same,log2 mean competition ratio,[2]; 50 µM,0.131
same,log2 mean competition ratio,[2]; 200 µM,-0.0892
AACS C15 (UniProt Q86V21),log2 mean competition ratio,[1]; 50 µM,-0.315
same,log2 mean competition ratio,[1]; 200 µM,0.215
same,log2 mean competition ratio,[2]; 50 µM,-0.128
same,log2 mean competition ratio,[2]; 200 µM,-0.125
ABCE1 C38,log2 mean competition ratio,[1]; 50 µM,-0.0752
same,log2 mean competition ratio,[1]; 200 µM,0.108
same,log2 mean competition ratio,[2]; 50 µM,-0.253
same,log2 mean competition ratio,[2]; 200 µM,-0.0142
ABCF3 C680 (UniProt Q9NUQ8),log2 mean competition ratio,[1]; 50 µM,-0.196
same,log2 mean competition ratio,[1]; 200 µM,-0.254
same,log2 mean competition ratio,[2]; 50 µM,0.0767
same,log2 mean competition ratio,[2]; 200 µM,-0.0556
AAAS C2 (UniProt Q9NRG9),log2 mean competition ratio,[1]; 50 µM,-0.135
same,log2 mean competition ratio,[1]; 200 µM,-0.332
same,log2 mean competition ratio,[2]; 50 µM,-0.117
same,log2 mean competition ratio,[2]; 200 µM,0.107
ABCF2 C186 (UniProt Q9UG63),log2 mean competition ratio,[1]; 50 µM,-0.156
same,log2 mean competition ratio,[1]; 200 µM,0.182
same,log2 mean competition ratio,[2]; 50 µM,-0.0992
same,log2 mean competition ratio,[2]; 200 µM,0.0205
ABHD17C C87 (UniProt Q6PCB6),log2 mean competition ratio,[1]; 50 µM,-0.409
same,log2 mean competition ratio,[1]; 200 µM,-0.165
same,log2 mean competition ratio,[2]; 50 µM,-0.243
same,log2 mean competition ratio,[2]; 200 µM,-0.115
ACAA2 C179,log2 mean competition ratio,[1]; 50 µM,-0.173
same,log2 mean competition ratio,[1]; 200 µM,-1.15
same,log2 mean competition ratio,[2]; 50 µM,-0.0373
same,log2 mean competition ratio,[2]; 200 µM,-0.173
ACAD8 C251 (UniProt Q9UKU7),log2 mean competition ratio,[1]; 50 µM,-0.302
same,log2 mean competition ratio,[1]; 200 µM,-0.101
same,log2 mean competition ratio,[2]; 50 µM,-0.128
same,log2 mean competition ratio,[2]; 200 µM,-0.0568
AASDH C736 (UniProt Q4L235),log2 mean competition ratio,[1]; 50 µM,0.0973
same,log2 mean competition ratio,[1]; 200 µM,-0.192
same,log2 mean competition ratio,[2]; 50 µM,0.0549
same,log2 mean competition ratio,[2]; 200 µM,-0.11
ABI2 C33 (UniProt Q9NYB9),log2 mean competition ratio,[1]; 50 µM,-0.0341
same,log2 mean competition ratio,[1]; 200 µM,-0.361
same,log2 mean competition ratio,[2]; 50 µM,-0.236
same,log2 mean competition ratio,[2]; 200 µM,0.185
ABCF2 C388 (UniProt Q9UG63),log2 mean competition ratio,[1]; 50 µM,0.734
same,log2 mean competition ratio,[1]; 200 µM,0.328
same,log2 mean competition ratio,[2]; 50 µM,0.47
same,log2 mean competition ratio,[2]; 200 µM,0.466
ACAT1 C119,log2 mean competition ratio,[1]; 50 µM,-0.178
same,log2 mean competition ratio,[1]; 200 µM,1.1
same,log2 mean competition ratio,[2]; 50 µM,-0.00712
same,log2 mean competition ratio,[2]; 200 µM,0.512
ABL1 C369 (UniProt P00519),log2 mean competition ratio,[1]; 50 µM,-0.0819
same,log2 mean competition ratio,[1]; 200 µM,0.0455
same,log2 mean competition ratio,[2]; 50 µM,-0.254
same,log2 mean competition ratio,[2]; 200 µM,-0.00328
ABCF3 C102 (UniProt Q9NUQ8),log2 mean competition ratio,[1]; 50 µM,0.0893
same,log2 mean competition ratio,[1]; 200 µM,-0.23
same,log2 mean competition ratio,[2]; 50 µM,0.0416
same,log2 mean competition ratio,[2]; 200 µM,-0.104
ABI1 C33 (UniProt Q8IZP0),log2 mean competition ratio,[1]; 50 µM,-0.18
same,log2 mean competition ratio,[1]; 200 µM,-0.0931
same,log2 mean competition ratio,[2]; 50 µM,-0.644
same,log2 mean competition ratio,[2]; 200 µM,-0.0688
ABHD16A C258 (UniProt O95870),log2 mean competition ratio,[1]; 50 µM,0.0814
same,log2 mean competition ratio,[1]; 200 µM,0.329
same,log2 mean competition ratio,[2]; 50 µM,0.155
same,log2 mean competition ratio,[2]; 200 µM,0.138
ABCC5 C760 (UniProt O15440),log2 mean competition ratio,[1]; 50 µM,-0.191
same,log2 mean competition ratio,[1]; 200 µM,0.0253
same,log2 mean competition ratio,[2]; 50 µM,-0.154
same,log2 mean competition ratio,[2]; 200 µM,0.089
ACAA1 C177 (UniProt P09110),log2 mean competition ratio,[1]; 50 µM,-0.0827
same,log2 mean competition ratio,[1]; 200 µM,0.138
same,log2 mean competition ratio,[2]; 50 µM,0.039
same,log2 mean competition ratio,[2]; 200 µM,0.207
ACAT1 C196,log2 mean competition ratio,[1]; 50 µM,0.21
same,log2 mean competition ratio,[1]; 200 µM,0.0252
same,log2 mean competition ratio,[2]; 50 µM,0.2
same,log2 mean competition ratio,[2]; 200 µM,-0.105
ABCB1 C1074 (UniProt P08183),log2 mean competition ratio,[1]; 50 µM,0.347
same,log2 mean competition ratio,[1]; 200 µM,0.281
same,log2 mean competition ratio,[2]; 50 µM,0.29
same,log2 mean competition ratio,[2]; 200 µM,0.248
ACAP2 C329 (UniProt Q15057),log2 mean competition ratio,[1]; 50 µM,0.184
same,log2 mean competition ratio,[1]; 200 µM,0.378
same,log2 mean competition ratio,[2]; 50 µM,-0.417
same,log2 mean competition ratio,[2]; 200 µM,0.311
ABR C667 (UniProt Q12979),log2 mean competition ratio,[1]; 50 µM,-0.168
same,log2 mean competition ratio,[1]; 200 µM,-0.0639
same,log2 mean competition ratio,[2]; 50 µM,-0.0979
same,log2 mean competition ratio,[2]; 200 µM,-0.04
ABCC5 C347 (UniProt O15440),log2 mean competition ratio,[1]; 50 µM,-0.0745
same,log2 mean competition ratio,[1]; 200 µM,0.197
same,log2 mean competition ratio,[2]; 50 µM,-0.0538
same,log2 mean competition ratio,[2]; 200 µM,0.216
ABL2 C999 (UniProt P42684),log2 mean competition ratio,[1]; 50 µM,-0.155
same,log2 mean competition ratio,[1]; 200 µM,-0.219
same,log2 mean competition ratio,[2]; 50 µM,0.139
same,log2 mean competition ratio,[2]; 200 µM,-0.165
ABCB8 C364 (UniProt Q9NUT2),log2 mean competition ratio,[1]; 50 µM,-0.0723
same,log2 mean competition ratio,[1]; 200 µM,0.193
same,log2 mean competition ratio,[2]; 50 µM,-0.0741
same,log2 mean competition ratio,[2]; 200 µM,0.264
ACAP2 C468 (UniProt Q15057),log2 mean competition ratio,[1]; 50 µM,0.0256
same,log2 mean competition ratio,[1]; 200 µM,-0.165
same,log2 mean competition ratio,[2]; 50 µM,-0.0907
same,log2 mean competition ratio,[2]; 200 µM,-0.122
ABCC5 C146 (UniProt O15440),log2 mean competition ratio,[1]; 50 µM,-0.243
same,log2 mean competition ratio,[1]; 200 µM,0.507
same,log2 mean competition ratio,[2]; 50 µM,-0.0264
same,log2 mean competition ratio,[2]; 200 µM,0.769
ABCF3 C4 (UniProt Q9NUQ8),log2 mean competition ratio,[1]; 50 µM,-0.202
same,log2 mean competition ratio,[1]; 200 µM,-0.278
same,log2 mean competition ratio,[2]; 50 µM,0.373
same,log2 mean competition ratio,[2]; 200 µM,0.0969
ABCD1 C631 (UniProt P33897),log2 mean competition ratio,[1]; 50 µM,0.368
same,log2 mean competition ratio,[1]; 200 µM,-0.0265
same,log2 mean competition ratio,[2]; 50 µM,0.199
same,log2 mean competition ratio,[2]; 200 µM,0.268

# Quoted from above for reference:
target,measurement,setting,value
ABI2 C33 (UniProt Q9NYB9),log2 mean competition ratio,[1]; 200 µM,-0.361
same,log2 mean competition ratio,[2]; 50 µM,-0.236
same,log2 mean competition ratio,[2]; 200 µM,0.185
ABCF2 C388 (UniProt Q9UG63),log2 mean competition ratio,[1]; 50 µM,0.734
same,log2 mean competition ratio,[1]; 200 µM,0.328
same,log2 mean competition ratio,[2]; 50 µM,0.47
same,log2 mean competition ratio,[2]; 200 µM,0.466
ACAT1 C119,log2 mean competition ratio,[1]; 50 µM,-0.178
same,log2 mean competition ratio,[1]; 200 µM,1.1
same,log2 mean competition ratio,[2]; 50 µM,-0.00712
same,log2 mean competition ratio,[2]; 200 µM,0.512
ABL1 C369 (UniProt P00519),log2 mean competition ratio,[1]; 50 µM,-0.0819
same,log2 mean competition ratio,[1]; 200 µM,0.0455
same,log2 mean competition ratio,[2]; 50 µM,-0.254
same,log2 mean competition ratio,[2]; 200 µM,-0.00328
ABCF3 C102 (UniProt Q9NUQ8),log2 mean competition ratio,[1]; 50 µM,0.0893
same,log2 mean competition ratio,[1]; 200 µM,-0.23
same,log2 mean competition ratio,[2]; 50 µM,0.0416
same,log2 mean competition ratio,[2]; 200 µM,-0.104
ABI1 C33 (UniProt Q8IZP0),log2 mean competition ratio,[1]; 50 µM,-0.18
same,log2 mean competition ratio,[1]; 200 µM,-0.0931
same,log2 mean competition ratio,[2]; 50 µM,-0.644
same,log2 mean competition ratio,[2]; 200 µM,-0.0688
